The IC50 is the concentration that inhibits the measured activity by half.

Amino acid sequences for entries named in this document (tags omitted). Chains listed by the source or under a name are the forms on record and can include a tag or linker.
UniProt P05412, other isoform, or with tags, fused parts or gaps: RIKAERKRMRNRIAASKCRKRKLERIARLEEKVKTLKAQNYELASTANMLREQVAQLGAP

One sequence from article PMC9088798, “An Approach to Derive Functional Peptide Inhibitors of Transcription Factor Activity” (JACS Au, 2022) can be followed below.

Construct, isoform or probe ends are uncertain for at least one entry.

Data set [1] concerns the target cJun bZIP (human) (UniProt P05412). The data set can be described thus: EMSA, competition. The note with it: 20 uM cJun, 2 uM DNA, free DNA band read-out, EMSA: 150 mM KCl, 1 mM DTT, 1 mM EDTA, 10 mM Tris, 10 mM MgCl2, pH 8, 4 C, 30 min, recombinant protein, protein details: C-terminal GAP, His-SUMO cleaved off. (Mobility shift assays separate free from complexed probe on a gel.)

The target is the same in data set [2]. The data set can be described thus: CD (281 nm DNA peak), competition. Conditions: EMSA: 150 mM KCl, 1 mM DTT, 1 mM EDTA, 10 mM Tris, 10 mM MgCl2, pH 8, 4 C, 30 min, recombinant protein, protein details: C-terminal GAP, His-SUMO cleaved off.

As for “GTCAGTCAGTGACTCAATCGGTCA (double strand) [TRE DNA]”, the IC50 in data set [1] (IC50 of A-FosW peptide) came out at 12.1 µM; in data set [1] (IC50 of HingeW peptide) it was 9.6 µM; in data set [2] (IC50 of A-FosW peptide displacing cJun from TRE DNA), 16 µM; in data set [2] (IC50 of FosW peptide displacing cJun from TRE DNA), 120 µM.
